Measurements from article doi:10.1101/2025.07.28.667104.

Protein sequences, listed by entry. Tags and fused reporters are not part of them.
UniProt P29590, whole entry: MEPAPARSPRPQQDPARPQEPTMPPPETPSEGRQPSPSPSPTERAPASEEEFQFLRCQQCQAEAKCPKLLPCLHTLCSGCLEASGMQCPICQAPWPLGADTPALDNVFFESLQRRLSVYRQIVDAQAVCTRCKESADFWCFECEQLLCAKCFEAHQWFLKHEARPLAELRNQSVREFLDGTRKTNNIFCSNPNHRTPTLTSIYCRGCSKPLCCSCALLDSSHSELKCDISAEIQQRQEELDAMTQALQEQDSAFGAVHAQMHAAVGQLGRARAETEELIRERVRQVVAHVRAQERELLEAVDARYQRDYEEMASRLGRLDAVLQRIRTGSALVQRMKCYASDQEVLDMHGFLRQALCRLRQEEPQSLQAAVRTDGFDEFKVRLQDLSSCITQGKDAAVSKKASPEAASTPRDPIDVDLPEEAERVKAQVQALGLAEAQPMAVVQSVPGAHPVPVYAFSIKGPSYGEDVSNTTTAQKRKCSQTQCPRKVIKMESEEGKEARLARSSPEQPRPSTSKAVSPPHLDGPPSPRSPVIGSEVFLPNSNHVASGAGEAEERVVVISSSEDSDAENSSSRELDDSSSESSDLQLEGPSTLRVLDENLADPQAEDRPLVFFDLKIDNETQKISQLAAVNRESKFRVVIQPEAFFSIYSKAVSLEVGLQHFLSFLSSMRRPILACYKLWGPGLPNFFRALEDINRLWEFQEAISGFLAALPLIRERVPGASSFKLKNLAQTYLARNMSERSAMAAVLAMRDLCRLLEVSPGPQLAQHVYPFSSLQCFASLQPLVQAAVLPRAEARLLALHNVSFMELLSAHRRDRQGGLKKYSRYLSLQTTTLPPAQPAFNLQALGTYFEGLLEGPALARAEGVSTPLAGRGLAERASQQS

Target: PML I-TurboID NTD (UniProt P29590)
Assay: proximity labelling

ATRX (from UniProt P46100 1-2492)
binding: binds

DAXX (from UniProt Q9UER7 1-740)
binding: binds

These are yes or no findings as the source states them, for the method shown. In cells and extracts the contact can be indirect. A yes stands for co-enrichment or nearness to the bait. Other partners may have been found.
